PubChem BioAssay AID1259308, NCATS – 2017
The deposit covers about 59,000 reagents; shown is a part drawn at random. In the full data, about 1,510 (2.6%) were called active. 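Calls use total luciferase alone and ignore viability, so some active siRNAs may act by altering cell number.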 The numbers tell different reagents against one gene apart. Not all columns of the deposit are shown. No sequences are given here.

Aim: 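Candidate targets for better recombinant protein yield in mammalian cells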 (primary screen)
Cell system: human HEK293 embryonic kidney cells stably expressing firefly luciferase (HEK-CMV-Luc2-Hygro)
Reagents: single siRNA against human genes, 0.8 pmol siRNA per well
Duration: 72 h
Measured: 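Reporter luminescence and viable-cell signal on separate replicate plates, given as percent of non-targeting control and median/MAD z-scores, plus per-cell luciferase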
Direction: total luciferase, z-score and total luciferase, % of control: higher = more reporter protein produced; luciferase per cell, z-score: higher = more reporter output per viable cell
Call rule: 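An siRNA counts as active if its total luciferase robust z-score exceeds 3; genes with two or more such siRNAs out of three were retested with fresh siRNAs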
Calls: active = raised luciferase; inactive = no rise

no.	gene	siRNA no.	total luciferase, z-score	total luciferase, % of control	luciferase per cell, z-score	outcome
1	GATA5	1	0.539	92.6	0.103	inactive
2	GATA5	2	1.15	105	1.64	inactive
3	GATA5	3	-0.144	79	-0.471	inactive
4	SLC45A3	1	-1.06	60.8	-1.31	inactive
5	SLC45A3	2	-0.488	72.2	-0.354	inactive
6	SLC45A3	3	-0.385	74.2	-0.468	inactive
7	CTTNBP2NL	1	2.34	128	1.32	inactive
8	CTTNBP2NL	2	0.132	84.5	0.205	inactive
9	CTTNBP2NL	3	0.0495	82.9	0.24	inactive
10	IFIT1B	1	1.8	118	1.26	inactive
11	IFIT1B	2	1.85	119	0.946	inactive
12	IFIT1B	3	1.92	120	3.15	inactive
13	PLEKHM1	1	0.228	86.4	-0.509	inactive
14	PLEKHM1	2	-0.479	72.4	-0.532	inactive
15	PLEKHM1	3	-0.903	63.9	-0.695	inactive
16	TNFRSF13C	1	2.79	137	1.61	inactive
17	TNFRSF13C	2	2.99	141	2.43	inactive
18	TNFRSF13C	3	1.2	106	0.887	inactive
19	CCDC71	1	-0.421	73.5	-0.221	inactive
20	CCDC71	2	0.353	88.9	0.0264	inactive
21	CCDC71	3	-0.793	66.1	-0.145	inactive
22	LUZP2	1	-0.398	74	0.585	inactive
23	LUZP2	2	1.53	112	2.63	inactive
24	LUZP2	3	2.3	128	1.56	inactive
25	MTG1	1	0.292	87.7	0.409	inactive
26	MTG1	2	-0.904	63.9	-0.223	inactive
27	MTG1	3	0.0303	82.5	0.357	inactive
28	RAB38	1	0.74	96.6	1.81	inactive
29	RAB38	2	-2.43	33.5	-1.17	inactive
30	RAB38	3	-0.442	73.1	-0.744	inactive
31	DNAJC18	1	-0.115	79.6	-0.487	inactive
32	DNAJC18	2	-0.0676	80.5	-0.419	inactive
33	DNAJC18	3	0.00454	82	-0.585	inactive

Copied from the listing for reference:
no.	gene	siRNA no.	total luciferase, z-score	total luciferase, % of control	luciferase per cell, z-score	outcome
3	GATA5	3	-0.144	79	-0.471	inactive
4	SLC45A3	1	-1.06	60.8	-1.31	inactive
5	SLC45A3	2	-0.488	72.2	-0.354	inactive
6	SLC45A3	3	-0.385	74.2	-0.468	inactive
7	CTTNBP2NL	1	2.34	128	1.32	inactive
8	CTTNBP2NL	2	0.132	84.5	0.205	inactive
9	CTTNBP2NL	3	0.0495	82.9	0.24	inactive
10	IFIT1B	1	1.8	118	1.26	inactive

More records follow:
no.	gene	siRNA no.	total luciferase, z-score	total luciferase, % of control	luciferase per cell, z-score	outcome
34	FH	1	0.401	89.9	0.763	inactive
35	FH	2	-1.36	54.8	-1.54	inactive
36	FH	3	0.691	95.6	0.755	inactive
37	TANC2	1	0.679	95.4	0.488	inactive
38	TANC2	2	-0.312	75.7	0.266	inactive
39	TANC2	3	1.98	121	1.09	inactive
40	C6orf120	1	-0.852	64.9	-0.503	inactive
41	C6orf120	2	-1.49	52.2	-1.79	inactive
42	C6orf120	3	-0.153	78.8	0.685	inactive
43	INSRR	1	1.97	121	3.11	inactive
44	INSRR	2	0.137	84.6	0.00352	inactive
45	INSRR	3	0.0485	82.9	-0.996	inactive
46	SLC25A25	1	0.509	92	1.63	inactive
47	SLC25A25	2	0.234	86.5	0.945	inactive
48	SLC25A25	3	-0.566	70.6	-0.379	inactive
49	GABRG3	1	-0.0155	81.6	-0.148	inactive
50	GABRG3	2	0.829	98.4	0.0874	inactive
51	GABRG3	3	1.58	113	1.22	inactive
52	PRKAG2	1	-1.43	53.4	-1.49	inactive
53	PRKAG2	2	-1.19	58.3	-0.267	inactive
54	PRKAG2	3	-0.457	72.8	-0.859	inactive
55	UNC13C	1	0.724	96.3	0.191	inactive
56	UNC13C	2	-0.55	70.9	-0.847	inactive
57	UNC13C	3	-1.49	52.2	-1.08	inactive
